Among the test systems are G6PC (human); GABPA (human); GABPB2 (human); GAMT (human); GAP43 (human).
Assay in all cases: protein microarray (ProtoArray v5.0), streptavidin-Alexa Fluor 647
Conditions in all cases: 3'-biotin; 20 mM Tris (pH 7.5), 5 mM MgCl2, 100 mM KCl, 0.1% Tween-20, A/T-rich and random oligonucleotide blockers; temperature not stated; high values mean tight binding

Test [1] deals with FYVE, RhoGEF and PH domain-containing protein 2 (human).
Test [2] deals with Ferritin heavy chain (human).
The subject of test [3] is G protein-coupled receptor kinase 6 (human).
The test system of test [4] is G1/S-specific cyclin-D1 (human).
The subject of test [5] is GA-binding protein subunit beta-1 (human).

Several values for one entry are separate records, joined by “and”; a condition that tells them apart may be missing. Equal values may be shown once. The list shows a part of the results.

With “GGTGACAGGGGTATGGGGAGGGG [G4-2 biotinylated (Ct1)]”, the binding signal in test [1] was -0.392 z-score; in test [2], -0.384 z-score; in [3], 5.15 z-score; in test [4], -0.39 z-score; with G6PC (human) it was -0.385 z-score; in test [5], -0.388 z-score. The binding signal in the test with GABPA (human) is -0.394 z-score; in the test with GABPB2 (human), -0.39 z-score and -0.403 z-score; with GAMT (human), -0.375 z-score; with GAP43 (human), -0.392 z-score.
